For one substance, binding results are on record in paper PMC5113665, “HF‐Free Boc Synthesis of Peptide Thioesters for Ligation and Cyclization” (Angewandte Chemie (International Ed. in English), 2016).

Protein sequences, listed by entry. Tags and fused reporters are not part of them. Lines headed by an entry give the natural chain unless they say otherwise; changes in a name come on top. Chains listed by the source or under a name are the forms on record and can include a tag or linker.
CHK2(73-538)S73C (O96017, form named): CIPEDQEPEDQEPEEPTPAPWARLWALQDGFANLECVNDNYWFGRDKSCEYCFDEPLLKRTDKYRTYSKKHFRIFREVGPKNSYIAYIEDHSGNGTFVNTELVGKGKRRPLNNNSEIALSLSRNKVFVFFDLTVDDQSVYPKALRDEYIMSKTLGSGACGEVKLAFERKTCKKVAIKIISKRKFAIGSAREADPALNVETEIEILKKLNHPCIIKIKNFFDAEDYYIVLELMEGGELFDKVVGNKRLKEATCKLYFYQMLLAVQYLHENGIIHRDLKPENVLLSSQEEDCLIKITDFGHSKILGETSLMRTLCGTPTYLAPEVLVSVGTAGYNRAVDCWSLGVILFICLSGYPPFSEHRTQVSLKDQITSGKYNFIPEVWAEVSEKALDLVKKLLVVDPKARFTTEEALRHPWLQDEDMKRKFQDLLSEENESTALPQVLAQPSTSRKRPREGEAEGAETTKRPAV

The target of this experiment is CHK2(73-538)S73C (UniProt O96017). In words: SEC; gel-filtration profiles of the purified unligated and ligated CHK2 proteins; both purified.

These are yes or no findings as the source states them, for the method shown. Some entries that bind do so weakly or less than the wild type.

Take “CHK2(73-538)S73C (from UniProt O96017 73-538) (domain or fragment)”: the binding entry was “binds weakly”.
